Assay results from PubChem BioAssay AID2685 (National Center for Advancing Translational Sciences (NCATS), 2010).
About 2,100 (0.66%) of roughly 320,000 compounds were called active. Inconclusive results, whose numbers are uncertain, are shown with a selection of clear calls. Calls come from the whole dose curve; as a rule, active = well fitted inhibition curve with a large enough effect in the signal ratio, with a control signal flat (not every such curve was filed as active); inconclusive = small, poorly fitted or top-dose-only effect, or effect the other way, or a change in a side signal; inactive = flat fitted curve, though single readings scatter; the % refers to the signal ratio. Potencies beside an inconclusive call are fits to weak or partial responses and may not hold up.

test: qHTS Assay for Lipid Storage Modulators in Drosophila S3 Cells; conditions: BODIPY lipid droplet fluorescence, 18-24 h, cells fed with added oleic acid; lipid storage change, negative = inhibition: at 46.1 µM (top of the series) unless noted
Outline: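 Laser-scanning cytometry quantifies lipid droplet accumulation (500–530 nm total intensity; droplet/cell object ratio) in oleic acid-fed (400 uM added) Drosophila S3 cells treated with a concentration series. 20 uM Triacsin C defined 100% inhibition.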
% is set by controls: 0 for no effect and ±100 for the full control effect; potency is the fitted concentration of half-maximal effect.

SMILES | Potency | lipid storage change, negative = inhibition
CC(Nc1oc(-c2ccco2)nc1C#N)c1ccccc1 (centres undefined) | inconclusive: 7.31 µM [activator, full curve, poor fit] | 
CN(Cc1ccccc1)C(=O)C1CCCN1S(=O)(=O)c1ccc2c(c1)n(C)c(=O)c(=O)n2C (centres undefined) |  | inconclusive: 6.34%
Cc1cc(C)cc(C(=O)N(Cc2ccco2)c2c(N)n(Cc3ccccc3)c(=O)[nH]c2=O)c1 | inconclusive: 0.0046 µM [falling, full curve, poor fit] | 
Cc1nc2ccccc2c2nc(NC(=O)Cc3ccccc3)nn12 | inconclusive: 1.03 µM [activator, partial curve] | 
COc1cc(NC(=O)Nc2cc(C)on2)cc(OC)c1OC |  | inconclusive: -11.4%
COCCNC(=O)c1ccc(Cl)c(S(=O)(=O)Nc2cccc(C)c2C)c1 |  | inconclusive: -29.4%
O=C(c1cc(Cl)ccc1[N+](=O)[O-])n1cnc2ccccc21 |  | inconclusive: 212%
Cc1ccc(S(=O)(=O)Nc2cccc(-c3ccc(N4CCCCCC4)nn3)c2)c(C)c1 | inconclusive: 2.91 µM [falling, full curve] | 
O=C(NCCc1ccc(Cl)cc1)C1CCCN1C(=O)Nc1ccccc1 (centres undefined) |  | inconclusive: 28.1%
CN(C)c1ccnc2sc(C(=O)NCc3ccccc3)c(N)c12 | inconclusive: 1.46 µM [activator, partial curve] | 
NC(=O)[C@@H]1CCNc2c(I)cc([N+](=O)[O-])cc2C(=O)N[C@@H](CCC(=O)O)C(=O)N[C@@H](CO)C(=O)N1 |  | inconclusive: -14.7%
CS(=O)(=O)N1CCC(C(=O)Nc2ccccc2Br)CC1 |  | inconclusive: 64.8%
Cc1cc(OCc2nc(-c3ccc(NC(=O)c4cccnc4)cc3)no2)ccc1Cl |  | inconclusive: 2.49%
COc1ccc(-c2cc(=O)c(C(=O)c3ccc(C)cc3)n[nH]2)cc1 |  | inactive: 2.45%
COc1ccc(N2CCN(C(=O)c3ccc(Br)o3)CC2)cc1 |  | inconclusive: 15.6%
O=C(Nc1nc2ccccc2s1)Nc1ccc(F)cc1F | inconclusive: 29.1 µM [activator, single point] | 
O=C1N=C(N2CCC(Cc3ccccc3)CC2)S/C1=C/c1cn[nH]c1-c1ccccc1 |  | inconclusive: 43.3%
COCCN(C(=O)CCC(=O)Nc1cc(C)on1)C(C(=O)NC(C)(C)C)c1ccc(OC)cc1 (centres undefined) |  | inconclusive: 135%
CC(=O)Nc1ccc(C)cc1 |  | inconclusive: -46.5%
CN(C(=O)CSc1nc2sc3c(c2c(=O)n1C)CCC3)C1CCS(=O)(=O)C1 (centres undefined) |  | inactive: 0.0094%
CC(=O)c1c(C)[nH]c(C(=O)OCC(=O)Nc2cc(C(F)(F)F)ccc2N2CCOCC2)c1C |  | inconclusive: 38.5%
COc1ccc(OC)c(NS(=O)(=O)Cc2ccccc2)c1 |  | inconclusive: -5.18% [at 9.22 µM]
CN(C(=O)COc1ccc(S(=O)(=O)N2CCOCC2)cc1[N+](=O)[O-])C1CCS(=O)(=O)C1 (centres undefined) |  | inconclusive: 2.65%
O=C(Nc1ccc2c(c1)OCO2)C(c1ccc(Cl)cc1)N1CCC2(CC1)OCCO2 (centres undefined) |  | inconclusive: -14.6%
Cn1c(=O)oc2cc(S(=O)(=O)NCCC(=O)N3CCN(c4ccccc4F)CC3)ccc21 |  | inconclusive: 9.37%
O=C(OCn1nnc2ccccc2c1=O)C1CCCCC1 | inconclusive: 0.731 µM [activator, full curve] | 
Cc1cc2ncn(CCC(=O)NC3CCCC3)c2cc1C |  | inconclusive: -56.3%

Random excerpt: four compounds from above.
SMILES | Potency | lipid storage change, negative = inhibition
O=C(Nc1nc2ccccc2s1)Nc1ccc(F)cc1F | inconclusive: 29.1 µM [activator, single point] | 
COCCNC(=O)c1ccc(Cl)c(S(=O)(=O)Nc2cccc(C)c2C)c1 |  | inconclusive: -29.4%
COCCN(C(=O)CCC(=O)Nc1cc(C)on1)C(C(=O)NC(C)(C)C)c1ccc(OC)cc1 (centres undefined) |  | inconclusive: 135%
Cc1ccc(S(=O)(=O)Nc2cccc(-c3ccc(N4CCCCCC4)nn3)c2)c(C)c1 | inconclusive: 2.91 µM [falling, full curve] | 

Following part.

SMILES | Potency | lipid storage change, negative = inhibition
CNC(=O)NC(=O)CSc1cccc(C(F)(F)F)c1 | inconclusive: 0.116 µM [falling, full curve] | 
COC(=O)N/N=C/c1ccc(-c2cc(Cl)ccc2Cl)o1 |  | inconclusive: -11.2%
CS(=O)(=O)c1ccc(Cl)c(C(=O)OCC(=O)NC2CCCCCCC2)c1 |  | inconclusive: 25.2%
O=C(C1CCCN1C(=O)c1cccs1)N1CCc2ccccc21 (centres undefined) | inconclusive: 0.92 µM [activator, full curve] | 
CN(c1ccccc1C(=O)Nc1ccccc1C(=O)NCc1ccco1)S(C)(=O)=O |  | inconclusive: 12.1%
Cc1nc2ccccc2c2ncccc12 |  | inconclusive: -58.9%
COCCC(=O)N1CCC(Oc2ccc(C(=O)N(C)C3CCCCC3)cc2)CC1 |  | inconclusive: 34.5%
O=C1NC2(CCCCO2)CO1 (centres undefined) | inconclusive: 29.1 µM [activator, single point] | 
O=c1[nH]c2ccccc2n2c(-c3ccccc3)nnc12 |  | inconclusive: 11.3%
Nc1nc(SCC(=O)N2CCc3ccccc32)[nH]c(=O)c1-c1ccccc1 |  | inconclusive: 33.5%
CCn1c(COc2ccccc2C(N)=O)nc2ccccc21 |  | inactive: -2.01%
Cc1ccc(C2CC(c3cccs3)n3nc(N)nc3N2)cc1 (centres undefined) |  | inconclusive: 13.7%
CC(=O)NCc1ccc(C(=O)CCl)s1 |  | inconclusive: -21.7%
CSc1nc2ncc(C#N)cn2n1 |  | inconclusive: 28.9%
C/C(=N/NC(=O)Cc1ccccc1)c1ccc(C)s1 |  | inconclusive: 25.2%
CN(C)S(=O)(=O)c1ccc(SCC(=O)N2CC(=O)Nc3ccccc32)nc1 | inconclusive: 3.66 µM [activator, single point] | 
N#C/C(=C\c1cccc(O)c1)C(=O)N1CCCCC1 | inconclusive: 23.1 µM [falling, single point] | 
CSc1ccc(/C=N/N2CCN(C)CC2)cc1 |  | inconclusive: 25.5%
CC(C)(C)NC(=O)CN(C(=O)CCC(=O)Nc1nccs1)c1ccc2c(c1)OCCO2 |  | inconclusive: 9.86%
Cc1cc(N2CCCC2)nc(N2C3CCC2CC(O)(c2ccc(F)cc2)C3)n1 (centres undefined) |  | inconclusive: 23.1%
Cc1ccc(NC(=O)NC2CCCCC2)c(C)c1 |  | inconclusive: 9.09%
CCCCn1c(-c2ccc(Cl)cc2)nc2c(=O)n(C)c(=O)[nH]c21 |  | inconclusive: 0.0807%
CCNC(=S)N1CCN(CC(=O)Nc2ccc(OC)cc2)CC1 |  | inconclusive: 10.6%
CCOC(=O)C1CCN(C(=O)c2ccccc2Oc2ccccc2)CC1 |  | inconclusive: 73.9%
CC(C)(C)c1cc(C(=S)N2CCCC2)cc(C(C)(C)C)c1O | inconclusive: 29.1 µM [falling, single point] | 
Cc1nc(SC(C)C(=O)NCC2CCCO2)c2cc(-c3ccccc3)sc2n1 (centres undefined) | inconclusive: 7.31 µM [falling, partial curve] | 
Cc1cccc(-c2cc(C(=O)Nc3cccnc3)c3ccccc3n2)c1 | inconclusive: 14.6 µM [falling, partial curve, poor fit] | 

SMILES | Potency | lipid storage change, negative = inhibition
COC(=O)Nc1c(C(=O)OC)cc(OC)c(OC)c1OC | active: 16.4 µM | 
COc1ccccc1NC(=O)c1ccc(NC(=O)COC(=O)C2CCCO2)cc1 (centres undefined) | inconclusive: 2.06 µM [activator, full curve] | 
CCC1=Nc2cc(C(=O)NCCN3CCCC3)ccc2Sc2ccc(C)cc21 |  | inconclusive: 129%
Cc1cccc(NC(=S)NCCN2CCOCC2)c1 |  | inconclusive: 9.02%
Cc1cc(C(=O)CSc2nnc(-c3ccncc3)n2-c2ccccc2)c(C)n1C |  | inconclusive: 48.1%
O=C(C/C(=N\NC(=O)c1ccccc1Br)C(F)(F)F)c1cccs1 | inconclusive: 23.1 µM [activator, single point] | 
CC(C)(C)C1CCC(=NNC(=O)CN(c2ccccc2)S(C)(=O)=O)CC1 (centres undefined) | inconclusive: 10.3 µM [falling, partial curve] | 
CN(C)Cc1cc(O)c(CN(C)C)cc1O | inconclusive: 5.17 µM [cytotoxic, full curve] | 
O=C1CCCC(=O)C1CS(=O)(=O)c1ccccc1 |  | inconclusive: 21.9%
CCOc1ccccc1Oc1c(C)oc2c(CN3CCN(C)CC3)c(O)ccc2c1=O |  | inconclusive: 0.0631%
CCCC(=O)NC(=S)Nc1cccc(C(C)=O)c1 |  | inconclusive: 23%
CCOc1ccc(CCNC(=O)Cn2cccc2C(=O)c2ccccc2)cc1OCC | active: 16.4 µM | 
Cc1csc(/C(C#N)=N/O)n1 | inconclusive: 2.91 µM [activator, full curve] | 
CC(C)c1ccc(NC(=O)C2C3C=CC4(CN(CCCN5CCOCC5)C(=O)C24)O3)cc1 (centres undefined) | inconclusive: 6.51 µM [falling, full curve] | 
CNS(=O)(=O)c1ccc(NC(=O)c2nc3nc(C)cc(C(F)F)n3n2)cc1 | inconclusive: 0.116 µM [falling, full curve, poor fit] | 
Cc1ccc(CN2CCC(C(=O)Nc3ccc(Oc4cccnc4)cc3)CC2)cc1 | inconclusive: 29.1 µM [falling, single point] | 
Cc1nc(SCC(=O)Nc2cccc(Cl)c2)n[nH]1 |  | inconclusive: -13.6%
COC(=O)Nc1nnc(-c2ccco2)s1 |  | inconclusive: 0.207%
CN(C(=O)c1ccc(S(=O)(=O)N2CCCC2)cc1)C1CCS(=O)(=O)C1 (centres undefined) |  | inconclusive: -17.4%
COc1ccc(CC(=O)Nc2ccccc2C(=O)N2CCCC2)cc1 | inconclusive: 1.84 µM [activator, partial curve] | 
O=C(Oc1ccccc1Cl)c1ccccc1P(=O)(O)O | inconclusive: 10.3 µM [activator, partial curve, poor fit] | 
Fc1ccccc1Nc1n[nH]c(=S)s1 |  | inconclusive: -30.2%
COc1ccc(OC)c(NC(=O)Cc2nn(C)c(=O)c3ccccc23)c1 |  | inconclusive: -12.7%
CCOc1ccccc1NC(=O)CN1CCN(C(=O)C2CCCO2)CC1 (centres undefined) |  | inconclusive: -22.3%
Cc1ccc(S(=O)(=O)Cc2csc(N)n2)cc1 | inconclusive: 29.1 µM [falling, single point] | 
